Assay results taken from paper PMC5520925.
These are yes or no findings as the source states them, for the method shown. Binding seen in cells or lysates may run through a third protein. Some entries that bind do so weakly or less than the wild type. For some of these results: Tags and fused reporters may be left off the sequences shown.

Chains of the proteins cited; added tags and fusions are not shown.
UniProt Q12834: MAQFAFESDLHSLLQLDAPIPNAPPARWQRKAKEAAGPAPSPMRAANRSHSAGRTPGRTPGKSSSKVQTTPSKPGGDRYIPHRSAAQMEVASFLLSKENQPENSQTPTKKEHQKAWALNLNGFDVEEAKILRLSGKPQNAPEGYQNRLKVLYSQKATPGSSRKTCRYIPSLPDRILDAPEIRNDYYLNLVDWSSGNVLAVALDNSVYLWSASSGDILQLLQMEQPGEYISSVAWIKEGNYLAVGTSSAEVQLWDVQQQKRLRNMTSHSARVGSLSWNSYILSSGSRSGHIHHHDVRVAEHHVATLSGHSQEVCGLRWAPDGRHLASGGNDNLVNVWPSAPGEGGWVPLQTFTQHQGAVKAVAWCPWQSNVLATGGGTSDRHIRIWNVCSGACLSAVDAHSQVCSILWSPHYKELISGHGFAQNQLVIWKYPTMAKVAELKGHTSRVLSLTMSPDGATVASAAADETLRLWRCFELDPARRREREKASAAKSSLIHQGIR

What was measured:
[1] = biological target: T1, FLAG-SMAR1 (scaffold matrix attachment region binding protein 1), wild type (UniProt Q8N9N5); assay: co-IP; MCF7 cells co-transfected with HA-Cdc20 and FLAG-SMAR1 (WT, D1 or D2); in Figure 2c treated with 10 uM MG132 for 6 h; whole cell extracts immunoprecipitated with anti-FLAG (or reciprocally), immunoblot; IP buffer 50 mM Tris pH 7.4, 200 mM NaCl, 0.1% Triton X-100, 4 C
T1 sequence: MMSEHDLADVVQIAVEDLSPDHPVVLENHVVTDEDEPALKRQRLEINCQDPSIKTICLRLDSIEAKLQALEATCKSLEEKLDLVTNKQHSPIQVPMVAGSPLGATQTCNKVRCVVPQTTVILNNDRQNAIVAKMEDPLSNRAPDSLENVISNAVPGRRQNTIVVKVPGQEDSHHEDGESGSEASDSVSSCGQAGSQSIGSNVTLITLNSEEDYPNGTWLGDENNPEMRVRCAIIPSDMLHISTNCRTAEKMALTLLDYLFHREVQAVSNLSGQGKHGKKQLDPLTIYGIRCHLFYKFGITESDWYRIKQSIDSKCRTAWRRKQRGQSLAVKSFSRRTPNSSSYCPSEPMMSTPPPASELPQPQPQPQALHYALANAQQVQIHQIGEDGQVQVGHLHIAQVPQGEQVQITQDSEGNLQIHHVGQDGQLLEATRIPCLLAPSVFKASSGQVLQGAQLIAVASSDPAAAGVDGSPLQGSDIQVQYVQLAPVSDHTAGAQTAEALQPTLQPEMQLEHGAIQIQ

[2] = biological target: T2, SMAR1, endogenous (human (endogenous in MCF7)) (UniProt Q8N9N5); assay: condition: only after ionizing radiation (10 Gy) of the cells; co-IP; endogenous proteins; lysates of MCF7 cells irradiated with ionizing radiation (10 Gy), immunoprecipitated with SMAR1 or Cdc20 antibody, immunoblot
T2 sequence: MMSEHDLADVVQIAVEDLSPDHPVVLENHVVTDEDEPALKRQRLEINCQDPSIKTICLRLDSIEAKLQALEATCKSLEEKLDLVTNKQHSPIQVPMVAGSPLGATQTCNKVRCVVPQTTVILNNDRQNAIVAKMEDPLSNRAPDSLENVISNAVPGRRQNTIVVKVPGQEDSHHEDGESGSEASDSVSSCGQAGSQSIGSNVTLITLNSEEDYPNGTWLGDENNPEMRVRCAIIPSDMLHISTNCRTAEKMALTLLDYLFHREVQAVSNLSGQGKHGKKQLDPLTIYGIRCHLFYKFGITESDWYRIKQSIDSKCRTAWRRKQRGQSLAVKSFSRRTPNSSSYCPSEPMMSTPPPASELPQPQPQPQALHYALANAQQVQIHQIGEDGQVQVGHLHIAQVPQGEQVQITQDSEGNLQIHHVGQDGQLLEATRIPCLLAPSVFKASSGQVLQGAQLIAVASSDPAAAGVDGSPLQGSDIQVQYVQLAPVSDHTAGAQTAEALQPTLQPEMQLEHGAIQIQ

[3] = biological target: T2, SMAR1, endogenous (human (endogenous in MCF7)); assay: co-IP; endogenous proteins; MCF7 cell extracts immunoprecipitated with SMAR1 antibody or IgG, immunoblot; un-irradiated cells; also irradiated cells with ATM inhibitor KU55933 (interaction restored); IP buffer 50 mM Tris pH 7.4, 200 mM NaCl, 0.1% Triton X-100, 4 C
[4] = biological target: HA-Cdc20 (cell division cycle 20 homolog) (UniProt Q12834); assay: co-IP; MCF7 cells co-transfected with HA-Cdc20 and FLAG-SMAR1 (WT, D1 or D2); in Figure 2c treated with 10 uM MG132 for 6 h; whole cell extracts immunoprecipitated with anti-FLAG (or reciprocally), immunoblot; IP buffer 50 mM Tris pH 7.4, 200 mM NaCl, 0.1% Triton X-100, 4 C

With “HA-Cdc20 (cell division cycle 20 homolog) (from UniProt Q12834 1-499)” the binding [1] was “binds”.

In the case of “Cdc20, endogenous (from UniProt Q12834 1-499)”, the binding [2] is reported as “no binding” and the binding [3] is reported as “binds”.

B1: FLAG-SMAR1 (scaffold matrix attachment region binding protein 1), wild type (protein, UniProt Q8N9N5 1-519)
chain: MMSEHDLADVVQIAVEDLSPDHPVVLENHVVTDEDEPALKRQRLEINCQDPSIKTICLRLDSIEAKLQALEATCKSLEEKLDLVTNKQHSPIQVPMVAGSPLGATQTCNKVRCVVPQTTVILNNDRQNAIVAKMEDPLSNRAPDSLENVISNAVPGRRQNTIVVKVPGQEDSHHEDGESGSEASDSVSSCGQAGSQSIGSNVTLITLNSEEDYPNGTWLGDENNPEMRVRCAIIPSDMLHISTNCRTAEKMALTLLDYLFHREVQAVSNLSGQGKHGKKQLDPLTIYGIRCHLFYKFGITESDWYRIKQSIDSKCRTAWRRKQRGQSLAVKSFSRRTPNSSSYCPSEPMMSTPPPASELPQPQPQPQALHYALANAQQVQIHQIGEDGQVQVGHLHIAQVPQGEQVQITQDSEGNLQIHHVGQDGQLLEATRIPCLLAPSVFKASSGQVLQGAQLIAVASSDPAAAGVDGSPLQGSDIQVQYVQLAPVSDHTAGAQTAEALQPTLQPEMQLEHGAIQIQ
In the case of B1, the binding [4] is reported as “binds”.
